The campaign covered roughly 330,000 compounds. About 7,700 (2.3%) were called active. Inconclusive results, whose numbers are uncertain, are shown with a selection of clear calls. The call rests on the fitted dose curve; in most records, active means well fitted inhibition curve with a large enough effect; inconclusive means small, poorly fitted or top-dose-only effect, or effect the other way; inactive means flat fitted curve, though single readings scatter. Where the call is inconclusive, the potency comes from a doubtful curve fit.
Assay: qHTS screen for small molecules that inhibit ELG1-dependent DNA repair in human embryonic kidney (HEK293T) cells expressing luciferase-tagged ELG1; further: nearly all actives have a fitted effect of over 55% in size
Conditions: HEK293T ELG1-luciferase reporter, luminescence, 16 h, DNA damage induced by 5-fluorouridine; series mostly up to 46.1 µM
Outline: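 HEK293T cells expressing luciferase-tagged ELG1 (2,000/well) received 5-Fluorouridine plus compound or DMSO for 16 hr at 37 °C. Luciferase was read by ONE-Glo luminescence after 30 min at room temperature.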
Potency means the concentration at half of the fitted maximal effect.

Row | Structure (SMILES) | Potency
1 | CC(C)C[C@H](NC(=O)c1[nH]cnc1C(=O)Nc1ccccc1)C(=O)OC(C)(C)C | inconclusive: 16.4 µM [inhibitor, partial curve, poor fit]
2 | CCCCNC(=S)N1CCn2cccc2C1c1ccc(F)cc1 (stereo unspecified) | inconclusive: 9.2 µM [inhibitor, partial curve]
3 | O=C(COC(=O)c1cccnc1Cl)c1ccc2c(c1)OCCO2 | inconclusive: 11.6 µM [activator, partial curve, poor fit]
4 | CCOC(=O)N1CCN(S(=O)(=O)c2ccc(C)cc2)C1c1ccc(OC)cc1 (stereo unspecified) | inconclusive: 23.1 µM [inhibitor, partial curve]
5 | COC(=O)c1cncc(C)c1 | inactive
6 | C=CCn1c(-c2c(C)nc3cc(C)ccn23)n[nH]c1=S | inactive
7 | Cc1cc(NC(=O)c2cc(-c3ccc(O)cc3)on2)no1 | inconclusive: 13 µM [activator, partial curve]
8 | Cc1ccc(C)n1-c1ccc(N2CCOCC2)cc1 | inconclusive: 23.1 µM [inhibitor, partial curve, poor fit]
9 | CCOc1ccc(Nc2nc3c(c(=O)[nH]2)CCCC3)cc1 | inconclusive: 23.1 µM [activator, single point]
10 | CC(C)=C(C#N)c1nc2ccccc2s1 | inactive
11 | CC(C)c1ccc2[nH]c(O)c(N=NC(=O)c3cccc(S(=O)(=O)N4CCCCC4)c3)c2c1 | active: 10.3 µM
12 | Clc1cccc(CN2COc3c(cc(Cl)c4cccnc34)C2)c1 | inconclusive: 0.731 µM [inhibitor, partial curve, poor fit]
13 | CCN(CC)S(=O)(=O)c1cc(C(=O)Oc2cccc(-c3cnc4ccccc4n3)c2)ccc1OC | inconclusive: 6.51 µM [activator, single point]
14 | COc1cccc(C(=O)Nc2cc(NC(=O)c3cccs3)ccc2C)c1OC | active: 16.4 µM
15 | C[C@@H]1CCC(=O)N(CC[C@H](Sc2ccccc2)c2ccccc2)CC1 | inconclusive: 25.9 µM [activator, single point]
16 | CC(C)COc1ccc(/C(=N/O)c2ccccc2)cc1 | inconclusive: 8.2 µM [activator, partial curve]
17 | O=C(COc1ccc([N+](=O)[O-])cc1Cl)NCC1CCCO1 (stereo unspecified) | inconclusive: 20.6 µM [activator, partial curve, poor fit]
18 | Cc1c(C=O)c(=O)n(-c2ccccc2)n1C | inactive
19 | COc1ccc(N(C)S(=O)(=O)c2cccc(C(=O)NC3CCCC3)c2)cc1 | inactive
20 | Cn1cc(CNC(=O)Nc2ccc3c(c2)OCO3)cn1 | inconclusive: 13 µM [activator, partial curve]
21 | COc1ccc(-c2cc(=O)n(CCC#N)[nH]2)cc1 | inactive
22 | Cc1cc(=O)oc2cc(OCC(=O)N/N=C/c3cc([N+](=O)[O-])ccc3O)ccc12 | inconclusive: 13 µM [inhibitor, partial curve]
23 | O=C1CC(SC(=Nc2ccccc2)Nc2ccccc2)C(=O)N1c1cccc(Cl)c1 (stereo unspecified) | inactive

Fetched one by one from above (3):
Row | Structure (SMILES) | Potency
12 | Clc1cccc(CN2COc3c(cc(Cl)c4cccnc34)C2)c1 | inconclusive: 0.731 µM [inhibitor, partial curve, poor fit]
5 | COC(=O)c1cncc(C)c1 | inactive
13 | CCN(CC)S(=O)(=O)c1cc(C(=O)Oc2cccc(-c3cnc4ccccc4n3)c2)ccc1OC | inconclusive: 6.51 µM [activator, single point]

(list continues)

Row | Structure (SMILES) | Potency
24 | CC(C)(C)SCCNC(=O)c1ccc(NS(C)(=O)=O)cc1 | inconclusive: 20.6 µM [activator, single point]
25 | O=C1C(Oc2ccc(Cl)cc2)C(c2ccc3c(c2)OCO3)N1CC1CCCO1 (stereo unspecified) | inconclusive: 29.1 µM [inhibitor, single point]
26 | O=C(CSc1nc2c(sc3ccccc32)c(=O)n1CCCN1CCCC1)NCc1ccco1 | inconclusive: 13 µM [activator, partial curve]
27 | CCOC(=O)C1CCN(S(=O)(=O)c2ccc3[nH]c(=O)oc3c2)CC1 | inconclusive: 20.6 µM [inhibitor, partial curve, poor fit]
28 | NS(=O)(=O)c1ccc(CCNC(=O)c2cc([N+](=O)[O-])ccc2N2CCOCC2)cc1 | inactive
29 | NC(=O)COC(=O)[C@H](Cc1ccccc1)NS(=O)(=O)c1ccc2c(c1)OCCO2 | inactive
30 | CN(C)S(=O)(=O)c1cccc(NC(=O)c2ccc3c(c2)OCCO3)c1 | inconclusive: 2.31 µM [activator, full curve]
31 | COc1ccccc1CN1CC(C(=O)N(C)Cc2[nH]c3ccccc3c2C)CCC1=O (stereo unspecified) | inactive
32 | O=C(c1ccco1)N1CCN(c2ccc([N+](=O)[O-])cc2Cl)CC1 | inconclusive: 23.1 µM [inhibitor, partial curve]
33 | CN(C(=O)C1CCC(=O)N(Cc2ccccc2F)C1)C1CCOCC1 (stereo unspecified) | inactive
34 | OCC#CCSc1nnc(-c2ccccc2Br)o1 | inconclusive: 20.6 µM [activator, partial curve]
35 | Cc1onc(-c2c(F)cccc2Cl)c1-c1nnc(-c2ccc(C(F)(F)F)cc2)o1 | inconclusive: 6.51 µM [inhibitor, single point]
36 | COc1ccc(CN2CCN(Cc3cccc4nonc34)CC2CCO)c(C)c1C (stereo unspecified) | inconclusive: 29.1 µM [inhibitor, single point]
37 | O=C(N/N=C\c1c(O)ccc2ccccc12)c1ccc(S(=O)(=O)N2CCCCC2)cc1 | inconclusive: 1.64 µM [inhibitor, partial curve]
38 | Cc1cc(C)n2nc(C(=O)NCC(=O)Nc3ccc(F)c(F)c3)nc2n1 | inactive
39 | CC(C(=O)OCC(=O)c1ccc(Br)cc1)N1C(=O)C2C3C=CC(C3)C2C1=O (stereo unspecified) | inactive
40 | COc1cc(/C=N/N=C(/N)c2nonc2N)cc(Br)c1OCc1cccc(C)c1 | inactive
41 | COCCNC(=S)NNC(=O)c1cccs1 | inactive
42 | O=C(CCCN=C1NS(=O)(=O)c2ccccc21)OCC(=O)c1ccc(F)cc1 | inconclusive: 18.3 µM [activator, single point]
43 | O=c1cc(N2CCCCC2)c(-c2ccccc2)n[nH]1 | inactive
44 | Cc1ccc(N2C(=O)CS/C2=C(\C(Cl)=C(Cl)Cl)[N+](=O)[O-])cc1 | inconclusive: 1.16 µM [activator, single point]
45 | O=C(Nc1cccc(-c2csc(Nc3ccc(Cl)cc3)n2)c1)c1cccc(C(F)(F)F)c1 | active: 9.2 µM
46 | CS(=O)(=O)N(CC(=O)NCCSCc1c(F)cccc1Cl)c1cccc([N+](=O)[O-])c1 | inconclusive: 18.3 µM [inhibitor, single point]
